Results from article PMC7819943, “Rice protein-binding microarrays: a tool to detect cis-acting elements near promoter regions in rice”.
The list shows a part of the results.

The sequences below were run against T1, OsSMF1 (Oryza sativa, UniProt Q6ZLB0 1-436) (assay: protein-binding microarray (RPBM); PBS, 2% BSA, 51.3 ng/ul salmon testes DNA, 50 uM zinc acetate, 200 nM TF, 25 C, 1 h; high values mean tight binding). Settings: protein: recombinant; tags: N-terminal polyhistidine and DsRed monomer fusion (pET32a); chain copies: 2; label: CyDye5-dUTP incorporated in the synthesized complementary strand; 3' TTTTT single-stranded linker to array surface; dsDNA, one strand shown.
T1 sequence: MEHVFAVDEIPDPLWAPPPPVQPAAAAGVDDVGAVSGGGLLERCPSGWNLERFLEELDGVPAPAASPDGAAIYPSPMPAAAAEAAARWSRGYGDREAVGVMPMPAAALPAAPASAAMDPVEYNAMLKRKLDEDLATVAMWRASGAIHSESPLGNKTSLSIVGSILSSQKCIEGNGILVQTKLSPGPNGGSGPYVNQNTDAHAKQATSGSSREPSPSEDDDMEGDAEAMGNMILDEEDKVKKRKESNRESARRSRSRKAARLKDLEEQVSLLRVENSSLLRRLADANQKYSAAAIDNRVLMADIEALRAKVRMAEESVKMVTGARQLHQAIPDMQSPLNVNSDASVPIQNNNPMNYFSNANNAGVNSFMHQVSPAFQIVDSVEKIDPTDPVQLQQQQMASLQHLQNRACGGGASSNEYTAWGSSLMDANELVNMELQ
Summary of the method: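 Using Ni–NTA, transcription factors fused N-terminally to polyhistidine and DsRed were purified after expression in E. coli BL21-CodonPlus. These were incubated at 200 nM with a blocked, double-stranded custom Agilent array for 1 h at 25 °C in a buffer containing 50 µM zinc acetate, and the array was washed. The binding signal is per-feature fluorescence intensity (arbitrary units) on an Axon 4000B scanner.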
In the case of “GAGAGGAGGAAGACAGAGAGGAGAGATGAGATAGGATCAACGGAGTCACCTAGTGCAG”, the binding signal is reported as 46200 fluorescence intensity (a.u.). For “AGCAGCTAGCAGCATCTGCATCAGGGTGGGCAGGTTAACGCGGAGTCACCTAGTGCAG”, the binding signal was 3180 fluorescence intensity (a.u.). For “GCGATCTGTCTTTGTACGGCGGTAGCTGTAGTTGGACACGCGGAGTCACCTAGTGCAG”, the binding signal was 3290 fluorescence intensity (a.u.). In the case of “TGTGGTGTTGCATGTGTAGTAATATGTGCGCACGTATGTACGGAGTCACCTAGTGCAG”, the binding signal is reported as 3630 fluorescence intensity (a.u.). In the case of “CGGTGTTTGTAATTCATTTTATATAATGAAAATGGATTATCGGAGTCACCTAGTGCAG”, the binding signal is reported as 44600 fluorescence intensity (a.u.). For “GCATATGCCATTGAAAGCGAATATTCATGTGCATTACCACCGGAGTCACCTAGTGCAG”, the binding signal was 6940 fluorescence intensity (a.u.). In the case of “CTATTTTAGTTACGATGACAGCATCGTGTAGTCCAAATAGCGGAGTCACCTAGTGCAG”, the binding signal is reported as 3480 fluorescence intensity (a.u.). “CTTCTCAAGCAGGAGGAGGACTTGCCATGGTGTTGATTTGCGGAGTCACCTAGTGCAG” was tested, and the binding signal was 3740 fluorescence intensity (a.u.). “GATACACATCACCAGGTAGGTCCGCTAGGTGCGAAAGAGTCGGAGTCACCTAGTGCAG” was tested, and the binding signal was 14500 fluorescence intensity (a.u.). In the case of “AACCCATTCGGAGAGGTCGCCGAGTGGATTCGACGTTGGACGGAGTCACCTAGTGCAG”, the binding signal is reported as 3200 fluorescence intensity (a.u.). “AACGATGGTTTTATCCATTGTGACGTTGAGTGAGCCGGCTCGGAGTCACCTAGTGCAG” was tested, and the binding signal was 3190 fluorescence intensity (a.u.). In the case of “CTTGCCGCAAGACCACCGACCGTCGATTCCACGCCGCTCTCGGAGTCACCTAGTGCAG”, the binding signal is reported as 3800 fluorescence intensity (a.u.). “CCAAGACCGCAGGCACAGGCGCCGGCGGCGCACACAACACCGGAGTCACCTAGTGCAG” was tested, and the binding signal was 5070 fluorescence intensity (a.u.). In the case of “GCTCTGTCTGTGTGCGCCACGTACGTTATCGTCGACCGATCGGAGTCACCTAGTGCAG”, the binding signal is reported as 11200 fluorescence intensity (a.u.). With “GCTTGATCTCTTTCTAGCTCTACCGGCGGCGTGGCGGCGGCGGAGTCACCTAGTGCAG” the binding signal was 3160 fluorescence intensity (a.u.). “CCCCTTTTGCTTGCTGACAACCATTGAAACACTACCATAACGGAGTCACCTAGTGCAG” was tested, and the binding signal was 3230 fluorescence intensity (a.u.). “CAAACCACAGTGTTCCACGTCATCATCAATTGACAGCCGTCGGAGTCACCTAGTGCAG” was tested, and the binding signal was 37800 fluorescence intensity (a.u.). “CCGCTTCGCCCCGGCCGCCGCGTTCGCACGCTGCCTCCGTCGGAGTCACCTAGTGCAG” was tested, and the binding signal was 3400 fluorescence intensity (a.u.). “CCCGCCGCCGCCGGAGAAGCCTAGTGTTACGTTTACGGTTCGGAGTCACCTAGTGCAG” was tested, and the binding signal was 21300 fluorescence intensity (a.u.). “AGAATCTGTGTTCATGTGGATTTAATATTCTGAAATCTGCCGGAGTCACCTAGTGCAG” was tested, and the binding signal was 3430 fluorescence intensity (a.u.). In the case of “TAGTATCCAAAGCTCAGCGAGGAGTACGTGTGCCGGCGCACGGAGTCACCTAGTGCAG”, the binding signal is reported as 3160 fluorescence intensity (a.u.). For “TGTTCGATCACAACGGCTTGTTTTCCTTTTCGCTTGCGTGCGGAGTCACCTAGTGCAG”, the binding signal was 22700 fluorescence intensity (a.u.). In the case of “CGGAACTAATTAACTAAAATTAAACCCCGCTTTCTCGGTCCGGAGTCACCTAGTGCAG”, the binding signal is reported as 3170 fluorescence intensity (a.u.). In the case of “CACTTGCTGTTCAGGTGTCATAAGCCATTCCTGGACTTCACGGAGTCACCTAGTGCAG”, the binding signal is reported as 3250 fluorescence intensity (a.u.). “CGCCTCGCATCTGTTTGGCTTCCACGCCACTGCTCTGCAACGGAGTCACCTAGTGCAG” was tested, and the binding signal was 3900 fluorescence intensity (a.u.). “ACCCTTTGCAAGCTGATGCATGAGTAATGCTTGCTGCTGACGGAGTCACCTAGTGCAG” was tested, and the binding signal was 4800 fluorescence intensity (a.u.). “CAACAACGGCGGCTTGATATGCCAGCTGTATGTTGATCTGCGGAGTCACCTAGTGCAG” was tested, and the binding signal was 3960 fluorescence intensity (a.u.). “ACTGGCCGTGACGCATTTCAACCTCTTGATCTGAACTGCCCGGAGTCACCTAGTGCAG” was tested, and the binding signal was 3620 fluorescence intensity (a.u.). For “TAAAACCGGGGCACACGTCAGCGGCCTACTAGACACTTCCCGGAGTCACCTAGTGCAG”, the binding signal was 12300 fluorescence intensity (a.u.). For “GCATCTGGCGAAAGTGCCACCCCTACGTGCCCTTAAATTGCGGAGTCACCTAGTGCAG”, the binding signal was 3730 fluorescence intensity (a.u.). In the case of “GTGAGGCCGCCGTCGCCACGCACTCGACCGCCTTTGCTCCCGGAGTCACCTAGTGCAG”, the binding signal is reported as 5050 fluorescence intensity (a.u.). “GCTGTTGACGTACATGTCGTCATATACGCATGTCCTCGTTCGGAGTCACCTAGTGCAG” was tested, and the binding signal was 6920 fluorescence intensity (a.u.). With “TGAGTTGAGGTGATGCTGATCGCTCATCGCTCTTCATGTGCGGAGTCACCTAGTGCAG” the binding signal was 3220 fluorescence intensity (a.u.). With “GCGATGAGGTGTCACATACCGTGACGTCACCATTTTCATTCGGAGTCACCTAGTGCAG” the binding signal was 25900 fluorescence intensity (a.u.). With “ATGTGGCGGCAGAGTGGGAGTAGAAGGCTGGGACGGCGCGCGGAGTCACCTAGTGCAG” the binding signal was 10600 fluorescence intensity (a.u.). “AAAGAATTTCACACTTTGATTGCAGATGTCATTTCCAGTGCGGAGTCACCTAGTGCAG” was tested, and the binding signal was 3500 fluorescence intensity (a.u.). For “CTTCGCCTCGTCGGCCATTACACGCGGCAGCGGCCCTCATCGGAGTCACCTAGTGCAG”, the binding signal was 3430 fluorescence intensity (a.u.). For “CCCAACGCGTCACGCCGCCATTTCTTGGCCTCCCACTCGCCGGAGTCACCTAGTGCAG”, the binding signal was 5190 fluorescence intensity (a.u.). For “ATGGCCAGACAACTGTGTGGCCAGGAAGAACACATCCCTGCGGAGTCACCTAGTGCAG”, the binding signal was 3150 fluorescence intensity (a.u.). With “CACCTTCAGCACCGGAAAGTGTTGGTGACGGGGCATTTGGCGGAGTCACCTAGTGCAG” the binding signal was 4770 fluorescence intensity (a.u.). In the case of “TCCGATTTGGTACACGTAGCAAGTTAACACACCCAACGCGCGGAGTCACCTAGTGCAG”, the binding signal is reported as 4320 fluorescence intensity (a.u.). In the case of “TTGTCGAGGTCGCTAGATCCACTTTAGGGGTGGCAACGCACGGAGTCACCTAGTGCAG”, the binding signal is reported as 3140 fluorescence intensity (a.u.).
